The supplement of paper PMC7666118
Some of the results follow.

Protein sequences, listed by entry. Tags and fused reporters are not part of them. Lines headed by an entry give the natural chain unless they say otherwise; changes in a name come on top.
UniProt P08174: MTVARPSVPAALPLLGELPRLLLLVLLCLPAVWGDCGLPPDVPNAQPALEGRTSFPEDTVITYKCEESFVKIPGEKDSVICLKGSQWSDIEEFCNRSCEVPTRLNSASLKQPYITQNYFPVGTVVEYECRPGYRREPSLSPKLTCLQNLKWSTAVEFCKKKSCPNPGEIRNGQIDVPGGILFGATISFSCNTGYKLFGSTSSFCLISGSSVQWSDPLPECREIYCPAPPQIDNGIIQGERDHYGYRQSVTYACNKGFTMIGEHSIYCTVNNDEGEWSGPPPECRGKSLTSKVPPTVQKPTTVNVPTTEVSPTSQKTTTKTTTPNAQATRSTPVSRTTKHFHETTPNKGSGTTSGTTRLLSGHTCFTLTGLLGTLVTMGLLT
UniProt Q92989: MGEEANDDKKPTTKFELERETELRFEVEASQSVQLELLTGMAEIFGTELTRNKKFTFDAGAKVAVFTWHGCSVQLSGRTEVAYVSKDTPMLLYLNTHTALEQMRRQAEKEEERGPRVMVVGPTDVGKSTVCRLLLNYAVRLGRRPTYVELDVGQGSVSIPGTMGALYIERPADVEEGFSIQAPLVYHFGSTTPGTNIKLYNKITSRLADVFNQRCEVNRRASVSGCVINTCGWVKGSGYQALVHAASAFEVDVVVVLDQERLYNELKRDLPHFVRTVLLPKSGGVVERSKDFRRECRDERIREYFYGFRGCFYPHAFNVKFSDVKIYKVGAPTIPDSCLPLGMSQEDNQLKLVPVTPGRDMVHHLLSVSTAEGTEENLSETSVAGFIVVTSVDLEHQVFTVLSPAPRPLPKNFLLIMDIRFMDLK
UniProt P49427: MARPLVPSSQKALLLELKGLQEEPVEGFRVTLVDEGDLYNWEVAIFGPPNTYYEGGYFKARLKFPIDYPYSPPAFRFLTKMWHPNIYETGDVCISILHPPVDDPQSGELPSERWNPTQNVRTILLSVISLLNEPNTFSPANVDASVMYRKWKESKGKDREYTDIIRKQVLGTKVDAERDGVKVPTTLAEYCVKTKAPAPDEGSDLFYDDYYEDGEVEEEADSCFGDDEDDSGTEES
UniProt Q7Z7K0: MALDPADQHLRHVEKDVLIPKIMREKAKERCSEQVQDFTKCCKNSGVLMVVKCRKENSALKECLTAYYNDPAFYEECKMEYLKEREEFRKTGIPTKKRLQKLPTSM
UniProt P53567: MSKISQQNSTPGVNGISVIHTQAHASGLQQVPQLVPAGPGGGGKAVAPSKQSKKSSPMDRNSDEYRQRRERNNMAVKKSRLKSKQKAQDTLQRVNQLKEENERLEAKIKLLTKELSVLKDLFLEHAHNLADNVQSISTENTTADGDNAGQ
UniProt P24311, whole entry: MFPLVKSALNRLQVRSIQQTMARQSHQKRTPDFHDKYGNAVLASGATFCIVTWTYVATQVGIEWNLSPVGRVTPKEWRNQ
UniProt Q07108: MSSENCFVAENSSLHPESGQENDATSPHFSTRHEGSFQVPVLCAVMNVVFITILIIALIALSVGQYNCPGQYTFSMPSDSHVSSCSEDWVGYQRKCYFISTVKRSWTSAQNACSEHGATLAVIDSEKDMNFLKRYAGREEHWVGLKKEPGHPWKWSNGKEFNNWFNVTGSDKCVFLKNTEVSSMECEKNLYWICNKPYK
UniProt Q8TEP8: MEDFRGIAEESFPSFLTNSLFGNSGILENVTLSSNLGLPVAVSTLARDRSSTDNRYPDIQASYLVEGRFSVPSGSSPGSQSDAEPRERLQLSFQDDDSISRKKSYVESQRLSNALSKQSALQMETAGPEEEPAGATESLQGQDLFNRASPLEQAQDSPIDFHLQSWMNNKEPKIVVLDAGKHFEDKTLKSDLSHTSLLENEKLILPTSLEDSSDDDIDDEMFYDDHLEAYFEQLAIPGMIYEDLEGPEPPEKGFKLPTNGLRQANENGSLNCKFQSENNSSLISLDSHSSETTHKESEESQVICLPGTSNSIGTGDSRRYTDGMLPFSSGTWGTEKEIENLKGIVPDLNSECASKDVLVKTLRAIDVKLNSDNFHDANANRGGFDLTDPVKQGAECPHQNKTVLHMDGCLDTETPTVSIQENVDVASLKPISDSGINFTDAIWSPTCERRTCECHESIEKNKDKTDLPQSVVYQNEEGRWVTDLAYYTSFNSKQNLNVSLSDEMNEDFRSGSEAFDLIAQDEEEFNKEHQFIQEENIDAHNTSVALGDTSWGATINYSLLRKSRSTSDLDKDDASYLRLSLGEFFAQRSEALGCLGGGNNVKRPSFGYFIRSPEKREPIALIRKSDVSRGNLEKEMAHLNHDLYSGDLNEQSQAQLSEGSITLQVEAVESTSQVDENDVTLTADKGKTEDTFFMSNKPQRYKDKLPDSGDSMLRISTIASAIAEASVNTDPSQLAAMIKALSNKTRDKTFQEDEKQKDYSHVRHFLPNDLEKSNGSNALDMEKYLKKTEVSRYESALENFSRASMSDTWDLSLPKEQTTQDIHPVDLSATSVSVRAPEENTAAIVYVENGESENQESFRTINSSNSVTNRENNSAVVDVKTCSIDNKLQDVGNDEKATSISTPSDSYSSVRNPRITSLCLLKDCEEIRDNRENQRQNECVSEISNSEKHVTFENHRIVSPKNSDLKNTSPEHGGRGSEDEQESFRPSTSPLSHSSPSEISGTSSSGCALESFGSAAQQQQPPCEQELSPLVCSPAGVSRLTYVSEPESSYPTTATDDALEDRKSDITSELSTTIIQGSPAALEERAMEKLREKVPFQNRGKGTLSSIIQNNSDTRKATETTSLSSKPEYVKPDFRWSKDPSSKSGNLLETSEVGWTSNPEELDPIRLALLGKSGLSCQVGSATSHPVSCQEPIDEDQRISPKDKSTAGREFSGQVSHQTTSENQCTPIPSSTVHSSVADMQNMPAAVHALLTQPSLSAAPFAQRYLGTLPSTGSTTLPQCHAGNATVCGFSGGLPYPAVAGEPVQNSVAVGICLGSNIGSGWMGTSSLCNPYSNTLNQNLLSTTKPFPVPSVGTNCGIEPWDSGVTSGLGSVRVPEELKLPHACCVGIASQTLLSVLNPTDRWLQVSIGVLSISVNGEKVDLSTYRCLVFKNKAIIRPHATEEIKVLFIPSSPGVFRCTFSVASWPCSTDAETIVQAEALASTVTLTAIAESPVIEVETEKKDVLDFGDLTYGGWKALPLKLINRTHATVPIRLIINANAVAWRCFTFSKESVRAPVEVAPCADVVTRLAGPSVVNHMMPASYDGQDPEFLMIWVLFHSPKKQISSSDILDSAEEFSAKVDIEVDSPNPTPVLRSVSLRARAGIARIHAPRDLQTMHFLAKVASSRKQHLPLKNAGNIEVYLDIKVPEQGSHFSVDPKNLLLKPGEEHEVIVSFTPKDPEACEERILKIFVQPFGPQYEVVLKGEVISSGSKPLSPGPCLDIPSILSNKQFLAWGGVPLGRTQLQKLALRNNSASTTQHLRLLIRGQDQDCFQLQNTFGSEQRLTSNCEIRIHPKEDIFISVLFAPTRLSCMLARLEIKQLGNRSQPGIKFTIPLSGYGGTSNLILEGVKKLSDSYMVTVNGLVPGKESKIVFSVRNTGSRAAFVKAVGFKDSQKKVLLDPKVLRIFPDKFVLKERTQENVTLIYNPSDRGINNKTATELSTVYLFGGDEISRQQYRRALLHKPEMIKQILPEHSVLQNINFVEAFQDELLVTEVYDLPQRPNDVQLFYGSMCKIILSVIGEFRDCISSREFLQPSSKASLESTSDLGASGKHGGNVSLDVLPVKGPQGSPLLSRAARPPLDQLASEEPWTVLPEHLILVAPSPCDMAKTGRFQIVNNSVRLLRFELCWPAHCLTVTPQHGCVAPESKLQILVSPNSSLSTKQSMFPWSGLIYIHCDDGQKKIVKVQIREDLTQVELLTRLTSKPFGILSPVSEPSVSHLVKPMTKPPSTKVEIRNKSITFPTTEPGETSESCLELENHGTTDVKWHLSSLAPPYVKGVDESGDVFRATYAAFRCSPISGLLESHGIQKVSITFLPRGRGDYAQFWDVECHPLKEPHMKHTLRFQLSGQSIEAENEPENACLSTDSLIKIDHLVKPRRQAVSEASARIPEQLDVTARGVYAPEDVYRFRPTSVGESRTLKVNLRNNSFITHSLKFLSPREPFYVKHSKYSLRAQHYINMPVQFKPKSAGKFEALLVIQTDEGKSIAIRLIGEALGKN
UniProt P51795: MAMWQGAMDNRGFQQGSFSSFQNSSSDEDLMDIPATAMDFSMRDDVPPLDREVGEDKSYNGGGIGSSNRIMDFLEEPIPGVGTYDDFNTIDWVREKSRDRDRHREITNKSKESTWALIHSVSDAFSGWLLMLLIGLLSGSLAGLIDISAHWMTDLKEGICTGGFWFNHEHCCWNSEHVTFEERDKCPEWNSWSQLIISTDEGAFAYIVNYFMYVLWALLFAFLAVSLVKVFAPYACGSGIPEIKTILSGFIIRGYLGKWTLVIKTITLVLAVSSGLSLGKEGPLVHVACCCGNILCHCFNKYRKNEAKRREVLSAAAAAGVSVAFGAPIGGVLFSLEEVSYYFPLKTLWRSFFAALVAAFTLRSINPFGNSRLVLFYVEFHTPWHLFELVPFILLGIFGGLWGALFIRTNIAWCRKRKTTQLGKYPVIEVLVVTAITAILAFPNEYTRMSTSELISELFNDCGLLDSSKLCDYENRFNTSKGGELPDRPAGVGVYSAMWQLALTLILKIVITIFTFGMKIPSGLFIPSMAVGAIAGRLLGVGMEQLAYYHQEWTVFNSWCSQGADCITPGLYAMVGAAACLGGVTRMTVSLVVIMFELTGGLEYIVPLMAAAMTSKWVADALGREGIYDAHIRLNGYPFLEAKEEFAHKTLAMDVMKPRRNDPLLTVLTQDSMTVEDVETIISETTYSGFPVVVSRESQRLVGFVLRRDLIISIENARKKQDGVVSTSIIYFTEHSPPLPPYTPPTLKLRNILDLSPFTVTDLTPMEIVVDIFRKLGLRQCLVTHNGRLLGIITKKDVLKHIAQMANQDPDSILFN
UniProt P10606, whole entry: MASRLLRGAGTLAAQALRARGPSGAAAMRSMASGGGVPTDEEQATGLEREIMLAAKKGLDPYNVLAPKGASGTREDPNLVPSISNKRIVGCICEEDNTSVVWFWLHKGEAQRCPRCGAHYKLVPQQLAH
UniProt O43402: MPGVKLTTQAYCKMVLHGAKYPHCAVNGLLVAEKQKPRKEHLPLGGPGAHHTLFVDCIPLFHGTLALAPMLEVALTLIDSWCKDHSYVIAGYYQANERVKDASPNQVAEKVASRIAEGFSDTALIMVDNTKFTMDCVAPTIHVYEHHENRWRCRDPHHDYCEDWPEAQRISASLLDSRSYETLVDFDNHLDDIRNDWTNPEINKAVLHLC
UniProt P41208: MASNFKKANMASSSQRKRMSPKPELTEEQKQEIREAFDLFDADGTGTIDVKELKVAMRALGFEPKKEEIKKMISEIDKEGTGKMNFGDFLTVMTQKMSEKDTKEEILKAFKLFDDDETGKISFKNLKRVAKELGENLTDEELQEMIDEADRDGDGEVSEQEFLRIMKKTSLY
UniProt Q9BRQ6: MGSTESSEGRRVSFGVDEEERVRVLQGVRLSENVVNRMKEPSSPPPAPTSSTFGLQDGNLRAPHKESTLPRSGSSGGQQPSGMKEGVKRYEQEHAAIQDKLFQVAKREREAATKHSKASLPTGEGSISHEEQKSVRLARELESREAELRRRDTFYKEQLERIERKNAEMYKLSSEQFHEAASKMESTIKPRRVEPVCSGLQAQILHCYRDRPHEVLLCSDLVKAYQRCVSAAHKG
UniProt Q8IW35: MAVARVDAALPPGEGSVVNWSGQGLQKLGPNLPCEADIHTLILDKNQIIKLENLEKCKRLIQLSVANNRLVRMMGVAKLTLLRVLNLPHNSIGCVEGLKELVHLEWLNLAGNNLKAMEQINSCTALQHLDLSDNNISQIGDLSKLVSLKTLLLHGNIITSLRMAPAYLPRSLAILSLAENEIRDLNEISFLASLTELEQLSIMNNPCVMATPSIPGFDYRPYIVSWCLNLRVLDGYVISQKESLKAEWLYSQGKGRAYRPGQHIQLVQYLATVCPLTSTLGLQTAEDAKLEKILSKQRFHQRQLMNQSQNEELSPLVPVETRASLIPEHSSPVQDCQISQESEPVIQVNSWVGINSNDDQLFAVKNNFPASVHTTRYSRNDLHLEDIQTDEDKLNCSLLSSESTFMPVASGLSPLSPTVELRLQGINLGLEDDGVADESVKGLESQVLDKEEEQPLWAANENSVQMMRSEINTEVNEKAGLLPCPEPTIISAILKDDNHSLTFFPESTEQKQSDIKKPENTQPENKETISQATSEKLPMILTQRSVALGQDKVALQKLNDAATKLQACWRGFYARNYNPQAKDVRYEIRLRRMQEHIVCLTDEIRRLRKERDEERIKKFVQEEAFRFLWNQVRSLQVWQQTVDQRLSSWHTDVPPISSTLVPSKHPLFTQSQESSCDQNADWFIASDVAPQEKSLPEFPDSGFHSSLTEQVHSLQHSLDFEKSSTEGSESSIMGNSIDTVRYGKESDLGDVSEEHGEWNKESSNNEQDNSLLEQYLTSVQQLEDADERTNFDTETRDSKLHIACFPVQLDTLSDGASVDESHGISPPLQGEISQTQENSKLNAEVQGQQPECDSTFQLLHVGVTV

What follows are targets tested with COc1ccc(Cn2ccc3cc(C)c(C(=O)NO)cc32)cc1 (assay: dose-dependent thermal stabilisation call (2D-TPP, DLPTP, 10% FDR) (binary (1 = stabilised)); higher = stabilised by the compound). Details: system: HL-60 intact cells; concentration range 0.04-10 µM.
Procedure: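 2D thermal proteome profiling in intact HL-60 cells treated with BRD-3811 (0, 0.04, 0.29, 2, 10 uM) for 90 min at 37 C, then heated 3 min at one of 12 temperatures (42-63.9 C). Soluble protein was quantified by TMT10 MS. The value is the DLPTP call of the paper: dose-dependent thermal stabilisation over all temperatures at 10% FDR (F-test of a dose-response against a flat model); one experiment, one call per tested protein.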

Target	dose-dependent thermal stabilisation call
COPS8 (UniProt Q99627)	inactive: 0
CD55 (UniProt P08174)	inactive: 0
CLP1 (UniProt Q92989)	inactive: 0
CHD1 (UniProt O14646)	inactive: 0
CHID1 (UniProt Q9BWS9)	inactive: 0
CLCN3 (UniProt P51790)	inactive: 0
CDC34 (UniProt P49427)	inactive: 0
CMC1 (UniProt Q7Z7K0)	inactive: 0
COPS6 (UniProt Q7L5N1)	inactive: 0
CEBPG (UniProt P53567)	inactive: 0
COMMD1 (UniProt Q8N668)	inactive: 0
COX7B (UniProt P24311)	inactive: 0
CD69 (UniProt Q07108)	inactive: 0
CEP192 (UniProt Q8TEP8)	inactive: 0
CNBP (UniProt P62633)	inactive: 0
CMAS (UniProt Q8NFW8)	inactive: 0
COPS3 (UniProt Q9UNS2)	inactive: 0
CRKRS (UniProt Q9NYV4)	inactive: 0
CLCN5 (UniProt P51795)	inactive: 0
CPT2 (UniProt P23786)	inactive: 0

Target	dose-dependent thermal stabilisation call
CHD1L (UniProt Q86WJ1)	inactive: 0
CDKN2AIP (UniProt Q9NXV6)	inactive: 0
CHD9 (UniProt Q3L8U1)	inactive: 0
CPSF6 (UniProt Q16630)	inactive: 0
CHAF1A (UniProt Q13111)	inactive: 0
COX5B (UniProt P10606)	inactive: 0
CEP63 (UniProt Q96MT8)	inactive: 0
CIRBP (UniProt Q14011)	inactive: 0
CDCA3 (UniProt Q99618)	inactive: 0
COX4NB (UniProt O43402)	inactive: 0
CDC16 (UniProt Q13042)	inactive: 0
CETN2 (UniProt P41208)	inactive: 0
CEP110	inactive: 0
CHCHD6 (UniProt Q9BRQ6)	inactive: 0
CHMP2A (UniProt O43633)	inactive: 0
CEP97 (UniProt Q8IW35)	inactive: 0
CDC42 (UniProt P60953)	inactive: 0
COMMD7 (UniProt Q86VX2)	inactive: 0
CIR (UniProt Q86X95)	inactive: 0
CHKA (UniProt P35790)	inactive: 0

Quoted at random: three entries already listed.
Target	dose-dependent thermal stabilisation call
CHD1L (UniProt Q86WJ1)	inactive: 0
CHAF1A (UniProt Q13111)	inactive: 0
CEP97 (UniProt Q8IW35)	inactive: 0
